Reference: the supplement of paper PMC5949888
Most values lie at the floor of the assay. Slopes are relative: functional sequences can read slightly below zero.

tested on: Saccharomyces cerevisiae PS128 hsf1 delta, HSF1(1-493) fusion; test: growth estimate (transactivation domain function in HSF1 fusion, heat-shock survival) (a.u. (slope of normalised read count over time)); higher = stronger growth at 37°C, i.e. more transactivation activity; conditions: library: random library
Description: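 Random 60-nt DNA library encoding peptides of up to 20 aa, fused to the C-terminus of yeast HSF1 residues 1-493 (C-terminal TAD deleted) and expressed from the native HSF1 promoter on a CEN plasmid in hsf1-deleted S. cerevisiae PS128. Cells were selected at 37°C on -trp 5-FOA plates for 0, 2, 4, 6 and 8 days and amplicons were sequenced. Growth estimate is the slope of a robust linear fit of total-sum-normalised read counts (normalised to the first time point) over time, using at least 2 replicates. Sequences are classed functional (TAD activity) above a threshold of -0.13, set from stop-codon control sequences.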

Row | Substance | growth estimate
1 | HAGISGPLHPVIVYWMPV | < -0.25
2 | HAMIGRRV | < -0.25
3 | HAQVMLQSTSRFA | < -0.25
4 | HAREGLTRTGRARRACISSL | < -0.25
5 | HARIHI | < -0.25
6 | HARTSRDHLAVRAGTCSL | < -0.25
7 | HASCVVVTNRSAPCLFSRGL | < -0.25
8 | HASWPLITF | < -0.25
9 | HAVWLSIDPRSWGASLK | < -0.25
10 | HAWSLAV | < -0.25
11 | HAWTT | < -0.25
12 | HAYTQGYPRVIGRAFVNKSQ | < -0.25
13 | HCDPPKVCVVLRLAPILLRS | -0.218
14 | HCFASSSRRVPVCPARVAWP | < -0.25
15 | HCGMRA | < -0.25
16 | HCMQSTRCGTPQNGYNLVQG | < -0.25
17 | HCQGHFDR | < -0.25
18 | HCS | < -0.25
19 | HCSMPEHGRSFFKKPAHAQQ | < -0.25
20 | HCSRRRVGFRRCPQNRHKSP | < -0.25
21 | HCTVKVANYTWVVYLQRLSA | < -0.25
22 | HCVEFL | < -0.25
23 | HCVHVQFVLLRTHTILEFL | < -0.25
24 | HDAERSN | < -0.25

Row | Substance | growth estimate
25 | HDDDGEFQ | < -0.25
26 | HDGGLIYVAVAGSDQINSNL | < -0.25
27 | HDGGPHGSRILASLRMGFTE | < -0.25
28 | HDGRTKPDASGHRSVKKTGA | < -0.25
29 | HDGTRHGQQVHAVRHINPPR | < -0.25
30 | HDKSEYALSPGTTVKRTCPI | < -0.25
31 | HDLPGTPIY | < -0.25
32 | HDLVNLRAHIETESHLGYII | < -0.25
33 | HDPAEHFLAPQRSCSDCTRN | < -0.25
34 | HDPMSVLLS | < -0.25
35 | HDQHVYRVFLHSGTLYGLSR | < -0.25
36 | HDTGEAI | -0.203
37 | HDTSWKVDQGKRAADHTPSQ | < -0.25
38 | HEADLLCGRDSRYRGLQEQQ | < -0.25
39 | HEARRQAMREGI | < -0.25
40 | HEDSLKLRSGFPAD | < -0.25
41 | HEGIRCHEDVLSPCMSTHQL | < -0.25
42 | HEGLPQRTWSKKIRYDLKQK | 10.4
43 | HEGVLTCPSP | < -0.25
44 | HEPVNSLISTVSVVFRLSTA | < -0.25
45 | HEQVVSAINSIG | < -0.25
46 | HET | < -0.25
47 | HFAALSNSCSDMGILHLAPA | < -0.25
48 | HFAPS | < -0.25

Given field by field: entries from further up
HET
  growth estimate: < -0.25
HFAALSNSCSDMGILHLAPA
  growth estimate: < -0.25
HFAPS
  growth estimate: < -0.25

Further results

Row | Substance | growth estimate
49 | HFGTIPL | < -0.25
50 | HFLSLHDRGVPWYRPIKLLV | < -0.25
51 | HFRGPDTRTG | < -0.25
52 | HFRVIQEAP | < -0.25
53 | HFVSC | < -0.25
54 | HGCSITGGAMYLKVPACGSR | < -0.25
55 | HGDGGVSGGTKLSVVLSDTR | < -0.25
56 | HGEPDVYQLPANSVLTS | < -0.25
57 | HGGTVERGFAAYDL | < -0.25
58 | HGKEWREGETPAEGPR | < -0.25
59 | HGLRSIDHIEPQRQLLCWSS | < -0.25
60 | HGLSLYDQSDPYCQRIVHSF | < -0.25
61 | HGLTIEPPLPNSPYSAVMPA | < -0.25
62 | HGMRQYPFPTLGQYPSKADR | < -0.25
63 | HGPGGF | < -0.25
64 | HGPNTDRHT | < -0.25
65 | HGPQAFPVPCCLDQTTGCAG | < -0.25
66 | HGRLKDSRGYAGVSRFDLE | < -0.25
67 | HGRPRKLGNWVTRVVRLLLI | < -0.25
68 | HGSWESERVQLSSTLRPSQG | < -0.25
69 | HGTSF | -0.248
70 | HGVRLPINLRGHTCPARPQE | < -0.25
71 | HGWSKKDIFRESVDARRPDA | < -0.25
72 | HHEAGGNGPDHWEAYRYDSG | -0.248

Row | Substance | growth estimate
73 | HHKVGTYAIGTSLTRFLFID | < -0.25
74 | HHLFMI | < -0.25
75 | HHNSASTLITLKT | < -0.25
76 | HHPRIFPIAYRNVSLGGPAA | -0.246
77 | HHQNEAHVP | < -0.25
78 | HHRIRWSSVLWSSLEKGGCT | < -0.25
79 | HHTMGMSEGWGRFPSHHACH | < -0.25
80 | HHVRLSRARVRQTPGRLYTS | < -0.25
81 | HHWC | -0.246
82 | HIACAAIIAHISLGQLAGSA | < -0.25
83 | HIAGAPNPLGSASQVGEYCA | < -0.25
84 | HIASAVLKRTCTAARSRNAS | < -0.25
85 | HICSDGVKWGQPCGSSGPPW | < -0.25
86 | HIFRSRKWCPSNSQEA | < -0.25
87 | HIIWGDEAWGARSAQPEATH | -0.104
88 | HIQGLQTRSIEVRGGPRTPL | < -0.25
89 | HIQR | < -0.25
90 | HIVGDRL | < -0.25
91 | HIVHLASPMC | < -0.25
92 | HIYHSGSIRRIPKEISRRSD | < -0.25
93 | HKEPVSTKRYL | < -0.25
94 | HKGGRAVSGSRRSHSG | < -0.25
95 | HKGSRGSFETPPSSVAVPAT | < -0.25
96 | HKLTGDGQFKDHDVSVLLLR | < -0.25

Row | Substance | growth estimate
97 | HKPGSNLVIIFVGPDASARM | < -0.25
98 | HKRGLFL | < -0.25
99 | HKRSGSPLSETEKGLGTKAG | < -0.25
100 | HKSILLYCLLYMRFW | < -0.25
101 | HKSRNRRRPIGRKPRNLRKK | < -0.25
102 | HKVWLDTWASAGGFSLVWVS | < -0.25
103 | HLAILAVRRLRLSRDLFTTT | < -0.25
104 | HLANQYSRVGRPESTEGKLD | < -0.25
105 | HLASNIPMH | < -0.25
106 | HLAYDMCNLGVRLVRGW | < -0.25
107 | HLDFGIFIQARTMITFESGR | < -0.25
108 | HLDNSPYSCCADLHMPISPT | < -0.25
109 | HLEALAGGYILLSVVGA | < -0.25
110 | HLFCFQVGQYTTGFRMRDTL | < -0.25
111 | HLFGTRVLVKLWGILVRMQY | < -0.25
112 | HLFPDRTRHITHPSDQ | < -0.25
113 | HLGHSESVDNPGG | < -0.25
114 | HLISTVGGSGPVMCLPRADN | -0.246
115 | HLLFHEPTGKPQQHARDCML | < -0.25
116 | HLLGIGERG | < -0.25
117 | HLLMILSVLRLNNTANRFAL | < -0.25
118 | HLLTTRLLSCVLRRNVDA | < -0.25
119 | HLMRETLAALALPDDRIERC | < -0.25
120 | HLMRSHCDNGGTRTPWCLRS | < -0.25

Single values from the list.
HKPGSNLVIIFVGPDASARM – growth estimate: < -0.25
HLAILAVRRLRLSRDLFTTT – growth estimate: < -0.25

Following part:

Row | Substance | growth estimate
121 | HLMSSEFVKLEMMFCAERVE | < -0.25
122 | HLNIWRLTVLGQSSRGPSSG | < -0.25
123 | HLQAMTGV | -0.194
124 | HLQGSNIYH | < -0.25
125 | HLS | < -0.25
126 | HLSLIILVFCHESFPRAFIV | < -0.25
127 | HLSLKPMRFLFI | < -0.25
128 | HLVQGHRSHDRSVWLWLRSS | < -0.25
129 | HLVSHA | < -0.25
130 | HLVTSETSIWAKSCLLDREG | < -0.25
131 | HLWRTW | < -0.25
132 | HMECDQVLSRSQ | < -0.25
133 | HMNVLEATCIAPPGHLDNRR | < -0.25
134 | HMQELYLVGKLASTSDSLDL | < -0.25
135 | HMQQTSL | < -0.25
136 | HMTTHD | < -0.25
137 | HMVI | < -0.25
138 | HNELYAWSGIAWN | < -0.25
139 | HNFKGTG | < -0.25
140 | HNK | < -0.25
141 | HNLW | < -0.25
142 | HNQPSV | < -0.25
143 | HNQSRGEEHLYAGAIRSRLL | < -0.25
144 | HNQTATSSNGCR | < -0.25

Row | Substance | growth estimate
145 | HNRSVTRQDGRIRARFIKRR | < -0.25
146 | HNSHKNGGLQGRSMGHS | -0.237
147 | HNVPWVWNTSGFAN | < -0.25
148 | HPARWRSG | < -0.25
149 | HPCKSSLS | < -0.25
150 | HPEVSTRQQSERYGMTRREP | < -0.25
151 | HPG | < -0.25
152 | HPGREAFYGNC | < -0.25
153 | HPGVRSGTVRVNPVASAAPH | < -0.25
154 | HPLSKGGWM | < -0.25
155 | HPMRAR | < -0.25
156 | HPNAYHSVINHRIASFSTCA | < -0.25
157 | HPPIQGGPGPIDGARGGSST | < -0.25
158 | HPPTSSGSSQWVHLV | < -0.25
159 | HPREML | < -0.25
160 | HPSNVSKRGRSGSCLFALVS | < -0.25
161 | HPSRSCTLA | < -0.25
162 | HPSYYVCRIHAHVNPGPRKS | < -0.25
163 | HPV | < -0.25
164 | HPWQ | < -0.25
165 | HPYASYQRGVNVWVNRARKR | < -0.25
166 | HPYNLLICPPLNSARILL | < -0.25
167 | HQA | < -0.25
168 | HQADLICRRRHPRAIR | < -0.25

Row | Substance | growth estimate
169 | HQAGASGNTAQCGARLTDAG | < -0.25
170 | HQALSTGTGSES | < -0.25
171 | HQCPRTRHFSNEAHPSPLCG | < -0.25
172 | HQIVDYNTALS | < -0.25
173 | HQLGKPSLESTLECSAVNCR | < -0.25
174 | HQLIHALV | < -0.25
175 | HQPTVKLASFQQWCGNLSIA | < -0.25
176 | HQSGH | < -0.25
177 | HQV | < -0.25
178 | HQVPPTKESVSYCVVRRRTP | < -0.25
179 | HRD | < -0.25
180 | HRDVNICRQTWVRNMCGLRP | < -0.25
181 | HRERKTSLRVSLNETLHRRG | < -0.25
182 | HRFETWCLENSQGGLYVHLP | < -0.25
183 | HRFGQCALWFVS | < -0.25
184 | HRGADAGLWQFVNGPR | < -0.25
185 | HRGSRSLWESDT | < -0.25
186 | HRGTESS | < -0.25
187 | HRHCLA | < -0.25
188 | HRIVTFAIT | < -0.25
189 | HRPRDNLLSRSNGAGKLRIS | < -0.25
190 | HRPRGGRGRG | < -0.25
191 | HRQEGCDACRTSPPTVCSLG | < -0.25
